PubChem BioAssay AID2685 (National Center for Advancing Translational Sciences (NCATS), 2010)
The list shows a part of the results. The main result of the screen is listed elsewhere. These columns were measured beside it and carry no call. The list favours compounds with an active or inconclusive main result. Words in brackets tell the shape of the fitted curve; partial curves, single points and poor fits give uncertain potencies.

Test: qHTS Assay for Lipid Storage Modulators in Drosophila S3 Cells;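 on cell number change: cells counted by Cell Tracker Red CMTPX staining in the red channel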
Conditions: BODIPY lipid droplet fluorescence, 18-24 h; for cell number change: measured here: cell count max response, cells fed with added oleic acid
How it was run: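 Drosophila S3 cells got compounds at several concentrations plus oleic acid (400 uM solution). Laser-scanning cytometry with 488 nm excitation read lipid droplets at 500-530 nm and cells at 575-640 nm. Percent activity was relative to 20 uM Triacsin C.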

[1] = measured here: lipid fluorescence (Fed channel) AC50, cells fed with added oleic acid
[2] = measured here: cell number channel AC50, cells fed with added oleic acid

Row | SMILES | cell number change [%] | AC50 [1] | AC50 [2]
1 | CCCCC(c1nnnn1Cc1ccco1)N1CCN(c2nc3ccccc3s2)CC1 (configuration not stated) | -20 | – | –
2 | O=S(=O)(c1cccc(Cn2nnc(-c3ccc(F)cc3)n2)c1)N1CCOCC1 | -25.5 | 29.1 µM [falling, single point] | –
3 | COc1ccc(C(c2c(C)n(C)n(-c3ccccc3)c2=O)c2c(C)n(C)n(-c3ccccc3)c2=O)cc1 | -8.13 | 0.326 µM [rising, single point] | –
4 | CCOC(=O)C1=C(C)N(CCCC(=O)O)C(=O)NC1c1ccc([N+](=O)[O-])cc1 (configuration not stated) | -12.6 | 0.82 µM [falling, full curve, poor fit] | –
5 | CCOc1ccc(NC(=O)C/C(C)=N/NC(=O)Cc2ccc(Cl)cc2)cc1 | 20.5 | – | –
6 | Cc1ccccc1C(=O)Nc1nncs1 | – | – | 1.16 µM [falling, full curve]
7 | COc1ccc(NC(=O)C2CCN(c3cc(C)nc(-c4ccccc4)n3)CC2)cc1 | -38.5 | – | 23.1 µM [falling, single point]
8 | CC(C)CCCN1C(Nc2ccccc2)=NC[C@@H]1CC(C)C | 3.29 | – | –
9 | COC(=O)c1sc(S(=O)(=O)N2CCC(C(N)=O)CC2)c(C(=O)OC)c1C | 59.3 | 0.0731 µM [falling, full curve, poor fit] | 20.6 µM [rising, single point]
10 | Cc1ccc(S(=O)(=O)NCc2cccnc2)c(C)c1 | 4.38 | – | –
11 | CC(C)CN1C(=O)c2ccc(NC(=O)Cc3ccccc3)cc2C1=O | 159 | – | 16.4 µM [rising, partial curve]
12 | FC(F)(F)c1nc(-c2cccs2)ncc1-c1nnnn1-c1ccc(Cl)cc1 | -14.2 | 14.6 µM [falling, single point] | –
13 | O=C(CN1CCOCC1)Nc1ccc(S(=O)(=O)N2CCCCCC2)cc1 | 2.33 | – | –
14 | O=c1oc2ccccc2cc1-c1ccccc1 | 3.97 | 6.51 µM [rising, partial curve] | –
15 | CN(C)CC(=O)Nc1ccc(S(N)(=O)=O)cc1 | -13.5 | – | –
16 | Cc1cc(N2CCN(c3cccc(C(F)(F)F)c3)CC2)n2ncnc2n1 | -20.4 | – | –
17 | COc1ccc(Cl)cc1NC(=O)/C=C\C(=O)O | – | – | 7.31 µM [falling, single point]
18 | O=C(CCCOc1ccc(Cl)cc1Cl)NCCc1ccccn1 | 17.9 | – | 0.103 µM [rising, full curve, poor fit]
19 | CN(C(=O)c1ccc2ccccc2c1)c1ccccn1 | -40.8 | – | 25.9 µM [falling, partial curve, poor fit]
20 | O=C(NCC(c1cccnc1)N1CCN(c2ccccc2)CC1)OCc1ccccc1 (configuration not stated) | -27.3 | – | –
21 | CCCCn1c(N)c(N(Cc2ccccc2OC)C(=O)C(C)C)c(=O)[nH]c1=O | 12.4 | – | –
22 | COCCCNC(=O)c1ccccc1Sc1ccc(NC(C)=O)nc1 | 58.4 | – | 29.1 µM [rising, single point]

Row | SMILES | cell number change [%] | AC50 [1] | AC50 [2]
23 | Cc1ccccc1N1C(=O)C(Oc2ccc(Cl)cc2)C1CNCCCOC(C)C (configuration not stated) | – | 1.84 µM [falling, full curve, poor fit] | –
24 | CC(C)[C@H](NC(=O)OCc1ccccc1)C(=O)OCC(=O)NC1CCCCC1 | 93.5 | 0.00461 µM [rising, full curve, poor fit] | 20.6 µM [rising, partial curve]
25 | Cc1ccc(OCCSc2nc3ncnc(N)c3[nH]2)cc1 | 9.65 | 6.51 µM [rising, single point] | –
26 | O=C(COc1cccc2cccnc12)Nc1nccs1 | -14.4 | 0.092 µM [rising, full curve, poor fit] | –
27 | CSc1ncccc1C(=O)OCC(=O)C(C)(C)C | 5.13 | – | –
28 | CCCCn1c(N)c(N(CCOC)C(=O)c2cc(-c3ccc(OC)cc3)nc3ccccc23)c(=O)[nH]c1=O | 38.3 | – | 16.4 µM [rising, partial curve]
29 | O=C(CCC1CCCC1)NCCS(=O)(=O)N1CCN(c2ccccc2F)CC1 | 51.9 | – | 18.4 µM [rising, partial curve, poor fit]
30 | Cc1ccc(O)c(N=Nc2ccc(S(=O)(=O)N3CCCC3)cc2)c1 | -21.9 | 2.91 µM [falling, partial curve] | –
31 | O=C(COc1ccccc1F)N1CCCc2ccccc21 | -28.8 | 0.13 µM [rising, full curve, poor fit] | –
32 | CCCn1c(=NC(=O)c2ccco2)c(C(=O)OCC)cc2c(=O)n3ccccc3nc21 | 0.391 | 3.26 µM [rising, partial curve] | –
33 | COc1ccc(-n2c(Cc3cccn3C)nnc2SCC(=O)Nc2ccc3c(c2)OCCO3)cc1 | 73.1 | 29.1 µM [rising, single point] | 29.1 µM [rising, partial curve, poor fit]
34 | CC(C)Sc1nc2c(c(=O)[nH]c(=O)n2C)n1Cc1ccc(Cl)cc1 | -18.2 | 0.00461 µM [falling, full curve, poor fit] | –
35 | COCCNCCOc1ccccc1-c1ccccc1 | 34.4 | 13 µM [rising, partial curve] | 8.2 µM [rising, partial curve, poor fit]
36 | CCOc1ccc(-c2[nH]ncc2-c2ccccc2)c(O)c1 | -6.78 | – | –
37 | CCN(CC)S(=O)(=O)c1cccc(NC(=O)c2cncc(Br)c2)c1 | -20.8 | 0.82 µM [falling, full curve, poor fit] | –
38 | Cc1ncc(S(=O)(=O)c2ccc(Cl)cc2)c(-c2ccccc2)n1 | 12 | 2.91 µM [falling, single point] | 2.59 µM [falling, partial curve]
39 | CC(=O)c1cccc(NC(=O)c2cc(-c3ccc(C)cc3)on2)c1 | – | 2.91 µM [falling, partial curve] | –
40 | O=C(CN1CCN(c2ccc(F)cc2)CC1)c1ccc(O)cc1O | -17 | 0.00517 µM [falling, full curve, poor fit] | –
41 | COc1ccccc1N1CCN(C(=O)NCc2cccc(C(F)(F)F)c2)CC1 | 10.4 | 29.1 µM [rising, single point] | –
42 | COc1ccccc1N1CC(C(=O)Nc2nc(C)cs2)CC1=O (configuration not stated) | 11.8 | – | –
43 | CN(C)CCN1C(=O)C(=O)/C(=C(/O)c2ccc(S(=O)(=O)N3CCOCC3)cc2)C1c1ccccc1 (configuration not stated) | 40.1 | – | 0.92 µM [rising, full curve, poor fit]
44 | Cc1onc(-c2c(F)cccc2Cl)c1C(=O)Nc1nc2ccccc2[nH]1 | – | – | 0.92 µM [rising, partial curve]

Row | SMILES | cell number change [%] | AC50 [1] | AC50 [2]
45 | Cc1c(Cl)cccc1NCC(=O)NN=C1CCCC1 | -26.9 | 16.4 µM [falling, partial curve, poor fit] | –
46 | CCN(CC)C(=O)COc1ccc(-c2nnc(N3CCCCC3)c3ccccc23)cc1 | – | 6.51 µM [rising, single point] | 2.91 µM [rising, partial curve]
47 | COc1ccc(NC(=O)C(c2ccc(OC)cc2)N(C)C(=O)c2cnccn2)cc1 (configuration not stated) | 8.65 | – | –
48 | O=C(CNC(=O)c1ccco1)Nc1ccc2c(c1)OCCO2 | -6.11 | – | –
49 | CCn1c(-c2csc(C(C)C)c2)n[nH]c1=S | 14.1 | – | 0.092 µM [rising, full curve, poor fit]
50 | COc1ccccc1NC(=O)c1ccccc1S(=O)(=O)c1ccccc1[N+](=O)[O-] | -5.42 | 0.13 µM [rising, full curve, poor fit] | 0.116 µM [rising, full curve, poor fit]
51 | CCN(CC)CCNc1nc(C(F)(F)F)nc2c1nnn2Cc1ccccc1 | -1.1 | 18.4 µM [rising, single point] | –
52 | CCNC(=O)C12CCC(C)(c3nc4cc(C)c(C)cc4nc31)C2(C)C (configuration not stated) | 0.955 | – | –
53 | O=C(c1ccc(COc2c(F)c(F)c(F)c(F)c2F)o1)N1CCN(Cc2ccc3c(c2)OCO3)CC1 | -31 | 29.1 µM [falling, single point] | 29.1 µM [falling, single point]
54 | Fc1ccc(CNC(=S)Nc2cccc(Cl)c2)cc1 | -3.14 | – | –
55 | CN(Cc1cc(=O)n2ccsc2n1)c1ccccc1 | 103 | – | –
56 | CC(=O)c1ccc(N2CCN(C(=O)c3nn(C)c4c3CS(=O)(=O)c3ccccc3-4)CC2)cc1 | 21.2 | 0.259 µM [rising, full curve, poor fit] | –
57 | COc1ccc(OC)c(C2Nc3ccccc3NC3=C2C(=O)CC(C)(C)C3)c1 (configuration not stated) | -4.2 | 29.1 µM [rising, single point] | –
58 | O=S(=O)(NCc1ccc(C(F)(F)F)cc1)c1ccc(-n2cnnn2)cc1 | -9.35 | 6.51 µM [rising, partial curve] | –
59 | Cc1cc(C(=O)CSc2n[nH]c(N)n2)c(C)n1-c1cccc(F)c1 | -14.9 | 0.259 µM [rising, full curve, poor fit] | –
60 | CCCCn1c(N)c(N(CC(C)C)C(=O)C2CC(=O)N(c3ccc4c(c3)OCCO4)C2)c(=O)[nH]c1=O (configuration not stated) | 12 | – | –
61 | N#Cc1cc([N+](=O)[O-])ccc1NC(=O)COC(=O)C12CC3CC(CC(C3)C1)C2 | -18.3 | 29.1 µM [falling, single point] | –
62 | O=C(Nc1cc(F)ccc1F)C1CCCN(c2ncnc3c2nc2n3CCCCC2)C1 (configuration not stated) | 13.4 | 4.61 µM [falling, single point] | –
63 | Cc1nn(C)c(Cl)c1/C=C/C(=O)O | -28 | – | –
64 | Cc1ccc(C(=O)Oc2cccc(NC(=O)c3ccco3)c2)cc1S(=O)(=O)N1CCC(C)CC1 | -68.2 | – | 29.1 µM [falling, single point]
65 | CNC(=S)Nc1cc2oc3ccccc3c2cc1OC | 18.5 | – | –

Pulled by compound from the entries so far, 3 records:
Row | SMILES | cell number change [%] | AC50 [1] | AC50 [2]
15 | CN(C)CC(=O)Nc1ccc(S(N)(=O)=O)cc1 | -13.5 | – | –
56 | CC(=O)c1ccc(N2CCN(C(=O)c3nn(C)c4c3CS(=O)(=O)c3ccccc3-4)CC2)cc1 | 21.2 | 0.259 µM [rising, full curve, poor fit] | –
27 | CSc1ncccc1C(=O)OCC(=O)C(C)(C)C | 5.13 | – | –
